Compound in this test: CCc1cnccc1C(=O)Nc1cc2c(cc1F)NC(=O)CC2
In words: melting temperature shift (DMSO Tm minus MBE1-treated Tm) in cellular thermal proteome profiling; higher = less thermal stabilization by MBE1 (negative = stabilized by MBE1). To be noted: A375.

Amino acid sequences for entries named in this document (tags omitted). A change or cut given only in a name is not applied to a line headed by its entry.
UniProt O15446, whole entry: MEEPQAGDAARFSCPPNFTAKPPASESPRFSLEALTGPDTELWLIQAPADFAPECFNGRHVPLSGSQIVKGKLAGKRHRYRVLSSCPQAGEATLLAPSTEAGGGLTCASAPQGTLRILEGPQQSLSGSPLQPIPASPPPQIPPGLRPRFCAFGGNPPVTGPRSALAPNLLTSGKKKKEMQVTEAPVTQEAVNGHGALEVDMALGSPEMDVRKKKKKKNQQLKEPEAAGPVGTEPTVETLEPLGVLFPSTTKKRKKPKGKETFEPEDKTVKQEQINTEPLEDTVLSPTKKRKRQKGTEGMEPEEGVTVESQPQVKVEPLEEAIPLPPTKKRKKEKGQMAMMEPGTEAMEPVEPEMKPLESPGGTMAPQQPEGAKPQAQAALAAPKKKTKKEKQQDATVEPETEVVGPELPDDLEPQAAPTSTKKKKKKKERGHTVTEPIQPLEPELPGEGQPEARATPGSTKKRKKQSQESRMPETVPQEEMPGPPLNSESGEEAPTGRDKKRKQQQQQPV
UniProt O14733: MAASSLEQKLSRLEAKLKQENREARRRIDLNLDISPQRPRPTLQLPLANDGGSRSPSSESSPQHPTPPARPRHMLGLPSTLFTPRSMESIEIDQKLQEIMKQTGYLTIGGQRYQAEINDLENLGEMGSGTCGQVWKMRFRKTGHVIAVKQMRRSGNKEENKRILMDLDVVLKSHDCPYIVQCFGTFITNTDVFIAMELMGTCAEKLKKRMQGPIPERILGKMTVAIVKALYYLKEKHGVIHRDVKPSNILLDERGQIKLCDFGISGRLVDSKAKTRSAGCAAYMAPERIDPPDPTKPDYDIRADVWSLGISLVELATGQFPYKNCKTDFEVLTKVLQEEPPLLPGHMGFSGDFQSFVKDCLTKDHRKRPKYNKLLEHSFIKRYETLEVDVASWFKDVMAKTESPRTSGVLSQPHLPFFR
UniProt O14656: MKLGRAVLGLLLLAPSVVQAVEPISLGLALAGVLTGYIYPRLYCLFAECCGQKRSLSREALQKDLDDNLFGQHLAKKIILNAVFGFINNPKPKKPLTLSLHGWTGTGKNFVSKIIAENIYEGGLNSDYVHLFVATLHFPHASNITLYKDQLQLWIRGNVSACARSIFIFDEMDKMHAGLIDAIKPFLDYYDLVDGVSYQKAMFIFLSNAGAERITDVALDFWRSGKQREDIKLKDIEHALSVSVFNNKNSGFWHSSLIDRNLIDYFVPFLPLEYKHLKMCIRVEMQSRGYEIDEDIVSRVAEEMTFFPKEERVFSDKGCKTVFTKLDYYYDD
UniProt O14732: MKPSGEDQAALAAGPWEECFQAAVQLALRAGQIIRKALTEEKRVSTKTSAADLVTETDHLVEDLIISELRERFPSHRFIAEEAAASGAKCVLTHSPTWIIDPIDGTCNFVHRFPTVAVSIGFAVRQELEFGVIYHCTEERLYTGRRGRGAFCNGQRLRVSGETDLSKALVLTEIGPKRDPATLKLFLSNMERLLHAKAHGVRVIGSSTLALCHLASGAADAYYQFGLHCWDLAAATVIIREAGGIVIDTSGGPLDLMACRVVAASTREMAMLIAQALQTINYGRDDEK
UniProt C9JLW8: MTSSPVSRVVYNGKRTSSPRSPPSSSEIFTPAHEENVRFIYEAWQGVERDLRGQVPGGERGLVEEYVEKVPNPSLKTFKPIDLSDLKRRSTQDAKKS
UniProt O15287: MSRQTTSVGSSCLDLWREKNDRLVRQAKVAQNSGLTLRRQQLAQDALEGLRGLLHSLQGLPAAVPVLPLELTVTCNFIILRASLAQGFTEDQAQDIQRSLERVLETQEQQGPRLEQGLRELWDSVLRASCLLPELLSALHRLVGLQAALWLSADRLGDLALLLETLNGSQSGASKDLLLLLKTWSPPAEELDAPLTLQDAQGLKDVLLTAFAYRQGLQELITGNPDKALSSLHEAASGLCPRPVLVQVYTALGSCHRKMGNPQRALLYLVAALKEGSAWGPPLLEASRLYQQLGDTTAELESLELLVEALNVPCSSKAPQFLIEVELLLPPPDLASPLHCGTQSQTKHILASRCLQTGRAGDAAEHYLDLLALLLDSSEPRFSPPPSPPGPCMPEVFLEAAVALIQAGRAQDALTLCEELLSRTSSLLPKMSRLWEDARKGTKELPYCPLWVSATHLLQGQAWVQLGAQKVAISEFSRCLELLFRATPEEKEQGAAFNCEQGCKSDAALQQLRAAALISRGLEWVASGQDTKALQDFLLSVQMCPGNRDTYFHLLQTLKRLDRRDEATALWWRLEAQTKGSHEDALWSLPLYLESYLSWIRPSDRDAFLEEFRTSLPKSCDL
UniProt O15126: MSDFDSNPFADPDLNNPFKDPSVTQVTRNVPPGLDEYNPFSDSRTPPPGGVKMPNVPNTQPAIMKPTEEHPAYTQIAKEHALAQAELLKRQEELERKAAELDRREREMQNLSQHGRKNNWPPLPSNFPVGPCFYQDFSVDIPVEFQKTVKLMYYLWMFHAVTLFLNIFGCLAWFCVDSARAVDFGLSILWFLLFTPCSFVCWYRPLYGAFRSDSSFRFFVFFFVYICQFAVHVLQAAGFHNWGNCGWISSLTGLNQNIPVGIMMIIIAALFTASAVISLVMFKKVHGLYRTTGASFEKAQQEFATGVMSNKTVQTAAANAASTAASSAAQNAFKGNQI
UniProt O15151: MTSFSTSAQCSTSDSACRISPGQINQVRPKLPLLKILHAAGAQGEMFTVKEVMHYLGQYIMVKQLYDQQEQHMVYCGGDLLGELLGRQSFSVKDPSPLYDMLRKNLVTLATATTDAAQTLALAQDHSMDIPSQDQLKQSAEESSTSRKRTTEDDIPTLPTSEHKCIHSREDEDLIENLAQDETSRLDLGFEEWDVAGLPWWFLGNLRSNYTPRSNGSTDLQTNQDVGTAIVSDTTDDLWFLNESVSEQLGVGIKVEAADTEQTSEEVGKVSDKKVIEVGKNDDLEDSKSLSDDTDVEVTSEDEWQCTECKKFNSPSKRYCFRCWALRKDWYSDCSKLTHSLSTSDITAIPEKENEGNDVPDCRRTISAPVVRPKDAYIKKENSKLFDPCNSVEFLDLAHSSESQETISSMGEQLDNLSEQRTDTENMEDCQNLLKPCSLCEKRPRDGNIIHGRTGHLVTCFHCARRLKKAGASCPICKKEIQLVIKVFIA
UniProt O14737: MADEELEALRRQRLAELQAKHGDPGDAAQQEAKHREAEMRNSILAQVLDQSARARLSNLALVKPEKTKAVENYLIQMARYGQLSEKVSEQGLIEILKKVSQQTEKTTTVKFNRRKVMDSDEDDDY
UniProt O15118: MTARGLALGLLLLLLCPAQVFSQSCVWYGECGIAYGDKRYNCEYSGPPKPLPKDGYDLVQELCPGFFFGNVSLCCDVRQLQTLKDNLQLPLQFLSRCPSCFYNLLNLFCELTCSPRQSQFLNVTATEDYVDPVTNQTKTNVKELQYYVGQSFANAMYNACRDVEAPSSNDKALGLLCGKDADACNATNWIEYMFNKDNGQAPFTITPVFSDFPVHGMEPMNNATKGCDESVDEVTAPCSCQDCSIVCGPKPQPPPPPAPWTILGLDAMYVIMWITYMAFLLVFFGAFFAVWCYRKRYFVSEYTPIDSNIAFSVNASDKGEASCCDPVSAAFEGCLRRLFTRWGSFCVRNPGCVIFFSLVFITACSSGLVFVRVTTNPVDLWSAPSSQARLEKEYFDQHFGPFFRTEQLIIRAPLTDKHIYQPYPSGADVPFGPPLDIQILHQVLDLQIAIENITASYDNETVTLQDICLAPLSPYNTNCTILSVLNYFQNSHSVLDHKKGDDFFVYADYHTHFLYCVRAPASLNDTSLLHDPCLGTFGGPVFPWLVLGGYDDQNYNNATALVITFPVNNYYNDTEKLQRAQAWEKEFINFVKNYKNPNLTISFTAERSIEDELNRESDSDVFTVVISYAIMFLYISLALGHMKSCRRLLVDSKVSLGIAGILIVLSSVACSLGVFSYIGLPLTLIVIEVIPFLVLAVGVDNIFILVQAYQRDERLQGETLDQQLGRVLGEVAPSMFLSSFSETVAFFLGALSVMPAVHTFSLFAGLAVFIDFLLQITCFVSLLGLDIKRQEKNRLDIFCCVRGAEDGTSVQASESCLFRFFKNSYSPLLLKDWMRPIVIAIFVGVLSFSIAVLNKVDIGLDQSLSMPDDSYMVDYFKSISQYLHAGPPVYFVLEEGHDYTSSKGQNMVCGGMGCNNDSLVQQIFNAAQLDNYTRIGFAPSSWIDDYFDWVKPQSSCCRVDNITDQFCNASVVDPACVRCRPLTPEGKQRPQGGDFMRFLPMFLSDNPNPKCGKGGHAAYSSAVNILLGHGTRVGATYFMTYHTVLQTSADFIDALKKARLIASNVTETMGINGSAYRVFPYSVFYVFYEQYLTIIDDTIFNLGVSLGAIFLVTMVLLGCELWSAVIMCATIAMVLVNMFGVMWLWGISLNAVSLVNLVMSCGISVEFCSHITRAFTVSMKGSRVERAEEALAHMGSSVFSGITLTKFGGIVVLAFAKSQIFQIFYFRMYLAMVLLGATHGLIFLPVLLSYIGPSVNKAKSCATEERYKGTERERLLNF
UniProt O14776: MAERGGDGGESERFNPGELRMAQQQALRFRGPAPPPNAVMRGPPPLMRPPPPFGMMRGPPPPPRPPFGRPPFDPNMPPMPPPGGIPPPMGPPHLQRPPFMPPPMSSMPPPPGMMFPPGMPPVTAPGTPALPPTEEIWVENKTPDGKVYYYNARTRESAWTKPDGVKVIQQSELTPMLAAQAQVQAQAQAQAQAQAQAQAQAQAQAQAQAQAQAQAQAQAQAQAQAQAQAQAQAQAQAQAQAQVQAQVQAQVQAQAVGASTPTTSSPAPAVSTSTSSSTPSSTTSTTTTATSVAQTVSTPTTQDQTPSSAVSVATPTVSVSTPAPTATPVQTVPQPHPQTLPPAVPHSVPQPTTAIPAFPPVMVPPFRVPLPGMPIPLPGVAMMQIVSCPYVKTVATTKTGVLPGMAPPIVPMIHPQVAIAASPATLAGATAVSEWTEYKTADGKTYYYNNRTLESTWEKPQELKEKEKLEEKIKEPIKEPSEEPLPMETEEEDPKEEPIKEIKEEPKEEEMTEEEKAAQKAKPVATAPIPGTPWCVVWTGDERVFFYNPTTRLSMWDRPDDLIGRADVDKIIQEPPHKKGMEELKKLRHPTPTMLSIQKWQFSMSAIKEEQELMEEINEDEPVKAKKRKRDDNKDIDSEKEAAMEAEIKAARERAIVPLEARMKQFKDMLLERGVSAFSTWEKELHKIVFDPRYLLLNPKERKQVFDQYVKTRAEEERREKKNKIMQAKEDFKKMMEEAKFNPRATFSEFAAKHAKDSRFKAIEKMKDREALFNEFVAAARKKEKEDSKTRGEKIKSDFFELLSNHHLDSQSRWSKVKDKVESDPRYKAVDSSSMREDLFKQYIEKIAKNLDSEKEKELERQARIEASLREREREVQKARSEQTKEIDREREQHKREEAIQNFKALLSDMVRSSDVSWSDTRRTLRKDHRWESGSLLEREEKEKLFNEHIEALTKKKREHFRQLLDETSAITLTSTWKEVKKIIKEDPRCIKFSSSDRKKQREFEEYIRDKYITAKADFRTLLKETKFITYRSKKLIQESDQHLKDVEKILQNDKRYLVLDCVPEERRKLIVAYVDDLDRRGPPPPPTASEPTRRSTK
UniProt O00194: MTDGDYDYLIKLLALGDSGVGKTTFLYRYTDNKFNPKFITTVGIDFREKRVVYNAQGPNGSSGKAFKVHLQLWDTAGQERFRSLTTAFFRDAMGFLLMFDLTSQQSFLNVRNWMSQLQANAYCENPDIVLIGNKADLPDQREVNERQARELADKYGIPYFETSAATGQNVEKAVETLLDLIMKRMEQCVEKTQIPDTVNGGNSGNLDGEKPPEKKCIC
UniProt O15258: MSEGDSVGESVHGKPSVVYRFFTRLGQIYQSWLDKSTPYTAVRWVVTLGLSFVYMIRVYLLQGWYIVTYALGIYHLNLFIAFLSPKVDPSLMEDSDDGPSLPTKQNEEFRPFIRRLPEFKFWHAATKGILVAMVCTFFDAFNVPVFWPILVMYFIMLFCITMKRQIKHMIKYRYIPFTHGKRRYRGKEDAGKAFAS
UniProt A6NDU8: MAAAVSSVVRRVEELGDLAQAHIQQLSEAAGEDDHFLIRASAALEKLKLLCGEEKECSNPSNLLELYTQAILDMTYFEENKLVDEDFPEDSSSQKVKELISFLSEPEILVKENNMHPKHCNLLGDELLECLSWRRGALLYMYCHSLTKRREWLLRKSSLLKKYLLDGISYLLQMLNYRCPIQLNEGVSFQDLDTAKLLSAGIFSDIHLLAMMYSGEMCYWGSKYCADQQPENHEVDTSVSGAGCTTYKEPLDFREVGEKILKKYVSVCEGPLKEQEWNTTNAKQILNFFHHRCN
UniProt O14618: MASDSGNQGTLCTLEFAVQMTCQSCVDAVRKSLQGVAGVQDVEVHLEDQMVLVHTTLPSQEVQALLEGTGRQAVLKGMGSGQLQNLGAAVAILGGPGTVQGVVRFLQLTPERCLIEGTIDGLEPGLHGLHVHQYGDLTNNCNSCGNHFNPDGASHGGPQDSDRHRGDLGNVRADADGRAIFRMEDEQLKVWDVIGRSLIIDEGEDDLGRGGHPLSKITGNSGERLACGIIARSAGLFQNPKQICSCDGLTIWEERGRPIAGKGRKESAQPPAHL

Some of the results follow. This is a noisy data set.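 Tm was set to 64 °C where no melting was found, and many curves are irregular.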

For PDXK (UniProt O00764), the melting temperature shift reads like this: (MBE1 concentration: 100 nM) 0.555 °C; (MBE1 concentration: 1 uM) 1.65 °C.

In the case of UniProt O43306, the melting temperature shift reads like this: (MBE1 concentration: 100 nM) 0.391 °C; (MBE1 concentration: 1 uM) -0.953 °C. Consider UniProt O15015, for which the melting temperature shift by setting is: (MBE1 concentration: 100 nM) -5.51 °C; (MBE1 concentration: 1 uM) -0.116 °C. In the same order, the values of PFAS (UniProt O15067) are 1.4 °C and 1.18 °C.

Regarding UniProt O15037, the melting temperature shift reads like this: (MBE1 concentration: 100 nM) -1.13 °C; (MBE1 concentration: 1 uM) -0.989 °C.

As for UniProt O14647, the melting temperature shift (MBE1 concentration: 1 uM) is -0.275 °C.

Turning to SNAP23 (UniProt O00161), the melting temperature shift (MBE1 concentration: 1 uM) was -2.43 °C.

As for UniProt O43166, the melting temperature shift is 0.507 °C (MBE1 concentration: 100 nM) and 0.904 °C (MBE1 concentration: 1 uM).

For the target UBFD1 (UniProt O14562), the melting temperature shift reads like this: (MBE1 concentration: 100 nM) -0.454 °C; (MBE1 concentration: 1 uM) 0.0183 °C. Taken in the same sequence, the figures for CD3EAP (UniProt O15446) were -12.4 °C and -6.22 °C. For UniProt O15083, under “MBE1 concentration: 100 nM”, the melting temperature shift was found to be 0.788 °C. In the case of AGRN (UniProt O00468), the melting temperature shift by setting is: (MBE1 concentration: 100 nM) 0.335 °C; (MBE1 concentration: 1 uM) 0.202 °C. Taken in the same sequence, the figures for UniProt O14733 were 2.43 °C and 1.2 °C. In the same order, the values of TOR1A (UniProt O14656) are -1.03 °C and -0.664 °C. In the same order, the values of UniProt O14910 are -0.322 °C and 0.641 °C. Turning to MAN2B1 (UniProt O00754), under “MBE1 concentration: 1 uM”, the melting temperature shift was -3.32 °C. Turning to CBX4 (UniProt O00257), the melting temperature shift reads like this: (MBE1 concentration: 100 nM) -0.448 °C; (MBE1 concentration: 1 uM) -0.0192 °C. In the case of SOCS6 (UniProt O14544), the melting temperature shift (MBE1 concentration: 100 nM) was -0.489 °C. For the target XPO1 (UniProt O14980), the melting temperature shift is, setting by setting: (MBE1 concentration: 100 nM) 0.244 °C; (MBE1 concentration: 1 uM) 0 °C.

Regarding IMPA2 (UniProt O14732), the melting temperature shift reads like this: (MBE1 concentration: 100 nM) -3.98 °C; (MBE1 concentration: 1 uM) -0.425 °C. Regarding HGS (UniProt O14964), the melting temperature shift reads like this: (MBE1 concentration: 100 nM) 0.733 °C; (MBE1 concentration: 1 uM) 0.385 °C. As for UniProt C9JLW8, the melting temperature shift was 1.91 °C (MBE1 concentration: 100 nM) and 1.39 °C (MBE1 concentration: 1 uM). In the same order, the values of NDUFS8 (UniProt O00217) are -0.183 °C and 0.208 °C.

On to UniProt A6NCE7, for which the melting temperature shift reads like this: (MBE1 concentration: 100 nM) -0.0488 °C; (MBE1 concentration: 1 uM) 2.28 °C. With UniProt O43303, the melting temperature shift (MBE1 concentration: 100 nM) came out at 0.519 °C.

Turning to E2F3 (UniProt O00716), the melting temperature shift by setting is: (MBE1 concentration: 100 nM) -1.5 °C; (MBE1 concentration: 1 uM) 0.611 °C. Take FANCG (UniProt O15287): the melting temperature shift (MBE1 concentration: 1 uM) is -1.76 °C. Still for that read-out and setting: next, UniProt O14607: -1.95 °C; SLC16A3 (UniProt O15427): 1.16 °C. Take SCAMP1 (UniProt O15126): the melting temperature shift (MBE1 concentration: 1 uM) was -2.25 °C. Regarding UniProt O15151, the melting temperature shift (MBE1 concentration: 1 uM) was -4.81 °C. Take AP3D1 (UniProt O14617): the melting temperature shift was 1.04 °C (MBE1 concentration: 100 nM) and 0.537 °C (MBE1 concentration: 1 uM). Taken in the same sequence, the figures for TNFRSF10A (UniProt O00220) were -0.269 °C and 2.98 °C. For the target ZNF609 (UniProt O15014), the melting temperature shift (MBE1 concentration: 100 nM) is -1.87 °C and the melting temperature shift (MBE1 concentration: 1 uM) was -2.2 °C.

For the target UniProt O43167, the melting temperature shift (MBE1 concentration: 1 uM) is 2.36 °C. Consider EIF3H (UniProt O15372), for which the melting temperature shift (MBE1 concentration: 100 nM) stood at 0.134 °C and the melting temperature shift (MBE1 concentration: 1 uM) was -0.0244 °C. As for PDCD5 (UniProt O14737), the melting temperature shift (MBE1 concentration: 100 nM) came to 0 °C. As for UniProt O00214, the melting temperature shift by setting is: (MBE1 concentration: 100 nM) 0.293 °C; (MBE1 concentration: 1 uM) -1.56 °C.

Turning to KMT2D (UniProt O14686), the melting temperature shift runs as follows: (MBE1 concentration: 100 nM) 1.28 °C; (MBE1 concentration: 1 uM) -0.47 °C. In the case of BCL9 (UniProt O00512), the melting temperature shift is -0.376 °C (MBE1 concentration: 100 nM) and -0.0672 °C (MBE1 concentration: 1 uM).

Regarding NPC1 (UniProt O15118), the melting temperature shift is, setting by setting: (MBE1 concentration: 100 nM) -1.72 °C; (MBE1 concentration: 1 uM) 1.85 °C.

For UniProt A6NFE2, the melting temperature shift is -5.32 °C (MBE1 concentration: 100 nM) and 0.745 °C (MBE1 concentration: 1 uM). In the same order, the values of HMGB3 (UniProt O15347) are -4.88 °C and -5.24 °C. In the same order, the values of SETD1A (UniProt O15047) are -0.0769 °C and -0.109 °C. On to EEF1E1 (UniProt O43324), for which the melting temperature shift (MBE1 concentration: 100 nM) was -0.64 °C and the melting temperature shift (MBE1 concentration: 1 uM) was -0.47 °C.

Regarding TCERG1 (UniProt O14776), the melting temperature shift (MBE1 concentration: 100 nM) was -0.574 °C and the melting temperature shift (MBE1 concentration: 1 uM) is -0.494 °C.

With ARPC3 (UniProt O15145), the melting temperature shift is -0.704 °C (MBE1 concentration: 100 nM) and 1.28 °C (MBE1 concentration: 1 uM). On to GAK (UniProt O14976), for which the melting temperature shift by setting is: (MBE1 concentration: 100 nM) -0.827 °C; (MBE1 concentration: 1 uM) -0.73 °C. Taken in the same sequence, the figures for LAMA5 (UniProt O15230) were -0.993 °C and 3.67 °C. In the case of CTIF (UniProt O43310), the melting temperature shift reads like this: (MBE1 concentration: 100 nM) 0.335 °C; (MBE1 concentration: 1 uM) -0.516 °C.

In the case of DVL2 (UniProt O14641), the melting temperature shift by setting is: (MBE1 concentration: 100 nM) -0.521 °C; (MBE1 concentration: 1 uM) 0.165 °C.

Take RAB27B (UniProt O00194): the melting temperature shift reads like this: (MBE1 concentration: 100 nM) -1.32 °C; (MBE1 concentration: 1 uM) 2.12 °C.

With PHYH (UniProt O14832), the melting temperature shift is -0.244 °C (MBE1 concentration: 100 nM) and 0.171 °C (MBE1 concentration: 1 uM). Consider UniProt A7KAX9, for which the melting temperature shift by setting is: (MBE1 concentration: 100 nM) -1.58 °C; (MBE1 concentration: 1 uM) -0.434 °C. In the same order, the values of DCTN6 (UniProt O00399) are -3.24 °C and -3.21 °C.

As to CDIPT (UniProt O14735), the melting temperature shift was -0.413 °C (MBE1 concentration: 100 nM) and 0.486 °C (MBE1 concentration: 1 uM). Taken in the same sequence, the figures for RER1 (UniProt O15258) were -3.24 °C and -1.38 °C. For KPNA4 (UniProt O00629), the melting temperature shift was -0.411 °C (MBE1 concentration: 100 nM) and 0.757 °C (MBE1 concentration: 1 uM). IPO8 (UniProt O15397): the melting temperature shift (MBE1 concentration: 100 nM) is -0.621 °C and the melting temperature shift (MBE1 concentration: 1 uM) was -0.682 °C. As for DDX3X (UniProt O00571), the melting temperature shift reads like this: (MBE1 concentration: 100 nM) -0.34 °C; (MBE1 concentration: 1 uM) -0.0448 °C.

With UniProt A6NDB9, the melting temperature shift is -0.567 °C (MBE1 concentration: 100 nM) and -3.98 °C (MBE1 concentration: 1 uM). For the target PIK3C2B (UniProt O00750), the melting temperature shift is -0.885 °C (MBE1 concentration: 100 nM) and 0.0591 °C (MBE1 concentration: 1 uM).

In the case of UniProt O15111, the melting temperature shift was -0.714 °C (MBE1 concentration: 100 nM) and -0.353 °C (MBE1 concentration: 1 uM). Taken in the same sequence, the figures for ARPC1B (UniProt O15143) were -1.1 °C and -0.704 °C. In the case of PJA2 (UniProt O43164), the melting temperature shift runs as follows: (MBE1 concentration: 100 nM) -0.918 °C; (MBE1 concentration: 1 uM) 0.525 °C. In the same order, the values of UniProt O14715 are -0.66 °C and -0.461 °C. PGRMC2 (UniProt O15173): the melting temperature shift is -0.912 °C (MBE1 concentration: 100 nM) and -0.114 °C (MBE1 concentration: 1 uM).

As to C5ORF51 (UniProt A6NDU8), the melting temperature shift is 1.17 °C (MBE1 concentration: 100 nM) and 0.837 °C (MBE1 concentration: 1 uM). With UniProt O14939, the melting temperature shift runs as follows: (MBE1 concentration: 100 nM) 0.678 °C; (MBE1 concentration: 1 uM) 0.397 °C. Turning to CCS (UniProt O14618), the melting temperature shift runs as follows: (MBE1 concentration: 100 nM) -1.01 °C; (MBE1 concentration: 1 uM) 2.21 °C.

With UniProt O14775, the melting temperature shift was found to be 0.507 °C (MBE1 concentration: 100 nM) and 0.104 °C (MBE1 concentration: 1 uM).

For DDX39A (UniProt O00148), the melting temperature shift reads like this: (MBE1 concentration: 100 nM) -0.654 °C; (MBE1 concentration: 1 uM) -0.226 °C. With PSMD12 (UniProt O00232), the melting temperature shift runs as follows: (MBE1 concentration: 100 nM) -0.915 °C; (MBE1 concentration: 1 uM) 0.305 °C. Turning to UniProt O00507, the melting temperature shift is 0.134 °C (MBE1 concentration: 100 nM) and -0.244 °C (MBE1 concentration: 1 uM).

Values taken from the supplement of paper PMC12595434, “Development of retinoid nuclear receptor pathway antagonists through targeting aldehyde dehydrogenase 1A3” (iScience, 2025).
